This note sets out measurements from patent publication US20260183269A1, “PHARMACEUTICAL COMPOSITION FOR PREVENTION OR TREATMENT OF DRUG-RELATED PEPTIC ULCER COMPRISING ZASTAPRAZAN OR PHARMACEUTICALLY ACCEPTABLE SALT THEREOF” (priority 2022, published 2026).

The series is described as follows: clinical. It counts as in vivo, human (healthy subjects). Conditions: human, oral; for AUC(0-t): in vivo, n = 22, mean ± SD, read-out: naproxen AUCT, SS; for Cmax: n = 22, plasma, mean ± SD, read-out: naproxen Cmax, SS. Here is the method: • JP-1366, 20 mg 2 capsules (zastaprazan citrate salt 40 mg)
Blood samples were collected from each subject at a designated time for the PK evaluation of the clinical trial drug, and all subjects underwent safety evaluation according to the designated schedule.
Blood samples were collected at designated times for the PK evaluation of zastaprazan (JP-1366).

Where [1] appears, read: Z + N (zastaprazan 40 mg and naproxen 500 mg).

Read-outs that look alike come from different tables or passages of the source.

The Cmax is the maximum level reached in the sampled fluid or tissue. `COc1ccc2cc([C@H](C)C(=O)O)ccc2c1` [Naproxen, naproxen, reference compound]: the AUC(0-t) is, setting by setting: (N (naproxen 500 mg alone)) 757 ± 66.6 µg·h/mL; under setting [1], 770 ± 76 µg·h/mL. The Cmax amounted to 92.5 ± 8.19 µg/mL (N (naproxen 500 mg alone)) and 97.4 ± 11.5 µg/mL under setting [1].
